# Primary screen of a compound library

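Assay on Mycobacterium tuberculosis, filed only as a heat shock assay from Cornell; the read-out is not stated. The concentration is filed as 10 mM, unlikely as a test dose, so the dose is not known. Higher reads as stronger inhibition (inferred: compounds with an IC50 in retests scored well above the rest). About 69,000 compounds were tested under these conditions; 1.4% (about 930) showed 50% or more at least once.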

Results are given as percent effect. The controls that fix the scale are not given in the record; negative values are as filed. Compounds were drawn at random from those tested, without regard to their results.

compound | effect
O=C(CCN1C(=O)CCC1=O)NCC1(c2c(F)cccc2F)CCCC1 | -11.79
COc1ccc(C(C)NC(=O)N2CCNC(=O)CC2)cc1F (configuration not stated) | -10.23
Cc1c(OCC(=O)NCc2ccccc2)c(=O)ccn1C | 14.72
CCc1nc(C2CCCN(C(=O)c3cccnc3O)C2)no1 (configuration not stated) | -0.905
CCn1cnnc1CNC(=O)NCC(c1cccs1)N1CCCC1 (configuration not stated) | 10.68
CNc1nc2c(s1)C(=O)CN(C(=O)NCc1ccccc1)C2 | -16.24
[H][C@@]12CN(Cc3ccccn3)C[C@]1([H])OCCN2c1cccnc1 | -6.447
OCCOc1ccc(NCc2cccnc2)cn1 | -7.207
COc1ccccc1C1CNC(=O)c2nc(-c3nccn3C)[nH]c2C1 (configuration not stated) | -6.064
CCC(CC(=O)NS(=O)(=O)C(C)C)c1ccccc1 (configuration not stated) | -11.51
CC(C)CN1CCC(NC(=O)N(C)Cc2csc3ccccc23)CC1 | -5.066
CCc1nc(Cn2nc(C3CCNCC3)n(-c3ccccc3)c2=O)cs1 | 22.08
CN1CC(=O)N(c2cccc(F)c2)CC12CCN(Cc1nccs1)C2.O=C(O)C(F)(F)F.O=C(O)C(F)(F)F (configuration not stated) | -34.81
COCCN1CCN(S(=O)(=O)C2CC2)Cc2cccnc21 | 18.22
COCCN1CCC(CN(C)c2nc3c(s2)c(C)nn3C)CC1 | -46.25
Cc1nccn1CC1CCCN1S(=O)(=O)Cc1ccccc1 (configuration not stated) | -2.522
CCc1ccc(NC(=O)C2CCN(C(=O)COC)CC2)cc1 | 26.98
COc1ccc(CNc2ncnc3c2NC(=O)CN3)cc1 | 1.385
CCCc1nnc(N2CC[C@](C)(O)[C@H](C)C2)s1 | 21.94
COc1ccc(-c2nnc(SC(C)C(=O)NC3CC3)[nH]2)c(OC)c1 (configuration not stated) | 13.53
Cc1nc(N(C)C)nc2c1COCC21CCN(C(=O)NC(C)C)C1 (configuration not stated) | 11.46
O=C(CN1CCCC1c1noc(C2CC2)n1)NCCc1ccsc1 (configuration not stated) | 7.646
OCCNC1CSCCc2ccccc21 (configuration not stated) | 4.081
Cn1cc(CN2CCC[C@]3(C[C@H](Oc4ncccc4F)CO3)C2)cn1.O=C(O)C(F)(F)F.O=C(O)C(F)(F)F | 15.03
CSc1ccc(NCC(=O)NC(=O)NCC(F)(F)F)cc1F | 17.15
COc1ccccc1[C@@H]1CN(Cc2ccc3nsnc3c2)C[C@H]1C(=O)O | -17.79
CC(C)N(C)Cc1cc(=O)n2c(n1)CN(C(=O)c1ccc[nH]1)CCC2 | 20.48
CCc1nc(NC(=O)NCCc2cccc(C)n2)nn1C | -2.711
CCn1ccnc1CN1CCN(c2ncnc3ccsc23)CC1 | -16.62
CCC(C)NC(=O)NCCCn1nc2ccccn2c1=O (configuration not stated) | 4.423
Cc1cncc(C2CCN(Cc3cnc(C)nc3)CC2)n1 | 1.172
CCC(=O)Nc1cc(Br)cn(C)c1=O | 10.86
CN1CCN(C(=O)c2nc3c(o2)CN(C(=O)c2cccnc2)C3)CC1.O=C(O)C(F)(F)F.O=C(O)C(F)(F)F | -31.2
Cc1cc(C)n(CC2CCCN2C(=O)CCc2cscn2)n1 (configuration not stated) | -10.56
CC(C)c1nc(C2CCCN(C(=O)CCn3cncn3)C2)no1 (configuration not stated) | -11.04
O=C(O)C(F)(F)F.O=C(O)C(F)(F)F.[H][C@@]12COC[C@]1(COCC(=O)N(C)C)CN(Cc1cccnc1OC)C2 | -30.03
O=C(O)C(F)(F)F.[H][C@@]12CCCO[C@]1([H])[C@@H](OC)CN2Cc1ccc(C)o1 | 2.612
CSc1ccc(-n2ccnc2-c2cc3n(n2)CCNC3)cc1 | -31.38
FC(F)(F)Cn1ccnc1CNCC1CCCN1c1cccnn1 (configuration not stated) | -3.055
CC1CN(C)c2ccccc2N(C(=O)c2c[nH]c(C(C)C)n2)C1 (configuration not stated) | -1.102
CCS(=O)(=O)N1CCc2ncnc(C)c2CC1 | -6.873
CC(C)c1nc2n(n1)CC(NCc1cc3ccccc3o1)CC2 (configuration not stated) | -145.5
Cc1occc1C(=O)Nc1cnn(CCN2CCOCC2)c1 | -16.44
Cc1ccc(CN2CCC(c3nnc(CN4CCCCC4)n3C)CC2)o1 | -0.2245
Cn1cccc1C(=O)NCc1ccnc(C2CCCOC2)n1 (configuration not stated) | 1.787
CCOc1cc(NC(=O)N2CCC3(CCOCC3)C2)ccc1C | 14.32
COCc1cn(CC2CCN(Cc3nc(C)c[nH]3)CC2)nn1 | 12.37
O=C(O)C(F)(F)F.[H][C@@]12CN(S(C)(=O)=O)C[C@H](C(=O)Nc3cccnc3)[C@]1([H])CCO2 | 10.55
CNC(=O)COC1COC2(CCN(c3cnccn3)CC2)C1.O=C(O)C(F)(F)F (configuration not stated) | 3.111
COc1ccc2cc(CNCc3c(C)nn(C)c3N(C)C)ccc2c1 | 1.762
CCc1ccc(C(=O)N2CCCN(Cc3nccn3CC)CC2)s1 | 16.59
Cc1cccn2c(CC(=O)N3CCC(CCn4cccn4)CC3)cnc12 | -5.374
O=C(O)c1ccc(N2CCC(Oc3ccc(Cl)cc3)CC2)nc1 | -7.675
Cc1ccc(CNC(=O)c2c[nH]nc2NC(=O)COCC2CC2)cc1 | 22.85
CCCc1noc(C[S+]([O-])CC(=O)NCc2ccccc2)n1 (configuration not stated) | -20.55
Cc1ccc(C)n1-c1ccsc1C(=O)NCC(=O)N1CCCC1 | 16.62
O=C(O)C(F)(F)F.[H][C@@]12CN(C(=O)NCc3ccccc3)CCC[C@]1(C(=O)O)CN(C(C)C)C2 | 4.396
Cc1n[nH]c(C2CN(C(=O)c3ccco3)CCO2)n1 (configuration not stated) | 9.244
Cc1cccc(CN2C(=O)CCC23CCN(Cc2cccn2C)CC3)n1.O=C(O)C(F)(F)F.O=C(O)C(F)(F)F | 6.554
Cc1ccc(-c2noc(C3CCN3C(=O)c3ccn(C)n3)n2)s1 (configuration not stated) | 4.216
CCc1ccccc1CNC(=O)CCc1cnn(C)c1 | 2.328
O=C(CC1CCN(CCN2CCCCC2)CC1)N1CCOCC1 | -27.23
C[C@@H]1CN(Cc2cccnc2)C[C@]1(C)O | 1.133
CN(C)c1cc(C(=O)N2CCCN(c3cccnn3)CC2)ccn1 | -4.009
Cc1nnc(CN2CCN(CCOc3ccccc3C#N)CC2)n1C | 9.41
O=C(Cc1cccnc1)NCCS(=O)(=O)c1ccccc1F | -12.12
CC(C)OCCS(=O)(=O)N1CCCC1c1cccc(N(C)C)c1 (configuration not stated) | 1.155
Cc1noc2nc3c(c(C(=O)/N=c4\[nH]ncs4)c12)CCC3 | -14.08
Cc1ccc(CNC(=O)CCN2CCN(c3ccccn3)CC2)n1C | 25.25
Cc1ccc(CN(Cc2ncc[nH]2)C2CC(C)(C)NC(C)(C)C2)o1.O=C(O)CC(O)(CC(=O)O)C(=O)O | 28.54
O=C(N[C@@H]1CCC[C@@H](N2CCOCC2)[C@@H]1O)c1cnn2cccnc12 | -4.75
CC(NCc1cccc(C#N)c1)c1ccccn1.Cl (configuration not stated) | -14.96
Cc1cc(C2CCCCN2C(=O)c2cccn2C)nc2nccn12 (configuration not stated) | 1.633
Cc1cc(C)n(C2CN(C(=O)Cn3c(=O)c(C)nc4ccccc43)C2)n1 | -16.43
O=C(O)C(F)(F)F.[H][C@@]12CCN(C(=O)c3ccc(C#N)cc3)[C@]1([H])CCC(=O)N2CCN(C)C | -4.855
Cc1nc2c(c(NCc3nc4ccccc4s3)n1)CCNCC2 | 105.4
CCCC(=O)N1CCC(N2CC[C@@](O)(CCOC)[C@H](C)C2)CC1 | 17.54
Cc1cnn(C2CN(CC(=O)NCCOc3ccccc3)C2)c1 | 4.306
CCC(O)CN1CCN(C(=O)CN(C)c2ccc(Cl)cn2)CC1 (configuration not stated) | 4.55
CN(Cc1ccsc1)C(=O)C1CCC(=O)N(Cc2ccccn2)C1 (configuration not stated) | 0.7957
CCCn1[nH]cc/c1=N\C(=O)CN1CCCC1c1cccn1C (configuration not stated) | 3.955
O=C(CSc1ccc(F)cc1F)NS(=O)(=O)c1ccc2c(c1)OCCO2 | -21.91

Once more, the final 11:

With CC(NCc1cccc(C#N)c1)c1ccccn1.Cl (configuration not stated) the screen gave -14.96%.
With Cc1cc(C2CCCCN2C(=O)c2cccn2C)nc2nccn12 (configuration not stated) the screen gave 1.633%.
With Cc1cc(C)n(C2CN(C(=O)Cn3c(=O)c(C)nc4ccccc43)C2)n1 the screen gave -16.43%.
With O=C(O)C(F)(F)F.[H][C@@]12CCN(C(=O)c3ccc(C#N)cc3)[C@]1([H])CCC(=O)N2CCN(C)C the screen gave -4.855%.
With Cc1nc2c(c(NCc3nc4ccccc4s3)n1)CCNCC2 the screen gave 105.4%.
With CCCC(=O)N1CCC(N2CC[C@@](O)(CCOC)[C@H](C)C2)CC1 the screen gave 17.54%.
With Cc1cnn(C2CN(CC(=O)NCCOc3ccccc3)C2)c1 the screen gave 4.306%.
With CCC(O)CN1CCN(C(=O)CN(C)c2ccc(Cl)cn2)CC1 (configuration not stated) the screen gave 4.55%.
With CN(Cc1ccsc1)C(=O)C1CCC(=O)N(Cc2ccccn2)C1 (configuration not stated) the screen gave 0.7957%.
With CCCn1[nH]cc/c1=N\C(=O)CN1CCCC1c1cccn1C (configuration not stated) the screen gave 3.955%.
With O=C(CSc1ccc(F)cc1F)NS(=O)(=O)c1ccc2c(c1)OCCO2 the screen gave -21.91%.

Data taken from ChEMBL document CHEMBL3988442, “University of Dundee, Small-Polar-MMV Screening Library” (2021).